According to patent publication EP2698383B1, “Detection of synthetic Cannabinoids” (priority 2012, dated 2014):
Read-outs that look alike come from different tables or passages of the source.

Tested on: Antibody 4.1
Type: binding, sheep
Conditions: tracer 1 (C7)
Experimental: The wells of an enhanced binding 96 well polystyrene microtiter plate were coated with IgG fraction of antiserum (Antibody 4.1 or antibody 4.2) raised to Immunogen 4 in separate host animals, diluted in 10mM Tris, pH8.5 (125µl/well). The appropriate antibody coating dilution was determined using standard ELISA checkerboard techniques. The plate was incubated overnight at 4°C, washed 4 times over 10 minutes with Tris buffered saline containing Tween 20 (TBST) and tapped dry.
Standard solutions of CP47,497 -C8 were prepared in TBST at 0, 2.5, 5, 10, 20, 40, 80 and 160ng/ml for Antibody 4.1, and at 0, 5, 10, 20, 40, 80, 160 and 320ng/ml for Antibody 4.2, and 50µl of each was added to the appropriate wells. 75µl of conjugate (Hapten 1-HRP - tracer 1 - see Figure 4) diluted in Tris buffer (pH 7.2) containing EDTA, D-mannitol, sucrose, thimerosal and BSA, was added to each of the wells. The appropriate dilution of conjugate was also determined using standard ELISA checkerboard techniques. The plate was incubated at 25°C for 1 hour. Excess unbound conjugate was removed by washing 6 times over a 10 minute period with TBST. 125µl of tetramethylbenzidine (TMB) substrate solution was added to each well of the plate that was then incubated for 20 minutes in the dark at room temperature. The reaction was terminated by addition of 125µl 0.2M H2SO4 to each well. The absorbance was then measured at 450nm using a microtiter plate reader.
In order to determine the specificity of the competitive ELISAs, standard solutions of a range of structurally similar compounds were prepared in TBST. Using the calibration curves generated and employing a single level of cross reactants (100ng/ml), these were used to determine the cross-reactivity of each immunoassay with these substances. The results of this study are presented in Table 2, as %B/B0, employing antisera raised against Immunogen 2b (C8), tracer 1 (C7) and (±)-CP-47,497 (C8 homologue) as standard.

## CCCCCCCC(C)(C)c1ccc(C2CCCC(O)C2)c(O)c1 (racemic) [(±)-CP-47,497 (C8 homologue)]
Standard 2.5 ng/ml
  A450: 1.529
Standard 5 ng/ml
  A450: 1.339
Standard 10 ng/ml
  A450: 1.117
Standard 20 ng/ml
  A450: 0.945
Standard 40 ng/ml
  A450: 0.808
Standard 80 ng/ml
  A450: 0.700
Standard 160 ng/ml
  A450: 0.641
